The results in this text go back to publication PMC12423496.

For this data set, the target named is T1, sHdrR-trunc (Hyphomicrobium denitrificans XT) (UniProt D8JT17).
T1 sequence (looked up): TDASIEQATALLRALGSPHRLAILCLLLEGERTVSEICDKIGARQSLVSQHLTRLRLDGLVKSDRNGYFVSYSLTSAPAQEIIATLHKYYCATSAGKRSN
The data set can be described thus: EMSA. As to conditions: 100 and 400 nM protein, 17 nM DNA, 1 mM DTT, 10 mM Tris-HCl, 50 mM KCl, pH 8.0 (1x of 10x buffer), about 7% glycerol, 20 min RT then 30 min at 30 C with 17 nM DNA, 6% native PAGE, 0.25x TBE, 4 C, recombinant protein, residues 26-125, label: none (SYBR Green I stain), probe letters rebuilt from the primers and the genome.

Protein sequences can lack the tags named with them.

As to “TTCCCGCCCCGTCTTGGTTTTTGTTTTACTTGCCTACCGAATACGTTTTGCAGCGAAGCGCCCTTGAGGGCGCTCGATCTCTTCCGGTGAGGGTTCGTGTCGATTGTTCAGCGCTCGCCTGGAAGTCGGCGCCAGCTATTAGATATGAATATTCCTATATTCAAATATAAATCGCAACGGAAGCGCATCGTCAAGGCCGTGCTCCGTGGTGCGCTACGCATCACCGCGTACGTTTGAGAACACAGCTTTGCCCGAAAATATATAAAGATATGAATATGTTGATGCTTAGATTTGAGTTGCAAGCTCTCTGCTGCATCGGTAGGTGATTAGCGAATATTCACGCTTTTTTGGATGCAACTCCT (double strand) [soxT1A-shdrR intergenic region]”, the binding result is “binds”.
